Results published in PubChem BioAssay AID493014 (National Center for Advancing Translational Sciences (NCATS), 2011).
Among all 340,000 compounds or so, about 170 (0.05%) were called active. Inconclusive means that the source gave no clear call. Such entries were picked first, then a sample of the others. Calls come from the whole dose curve; as a rule, active = well fitted inhibition curve with a large enough effect in the signal ratio, with a control signal flat (not every such curve was filed as active); inconclusive = small, poorly fitted or top-dose-only effect, or effect the other way, or a change in a side signal; inactive = flat fitted curve, though single readings scatter; the % refers to the signal ratio. Potencies beside an inconclusive call are fits to weak or partial responses and may not hold up.

experiment: qHTS Assay to Find Inhibitors of Chronic Active B-Cell Receptor Signaling; settings: ABC-DLBCL IkBa-CBG/CBR reporter, luminescence ratio (green luciferase fused to IkBa over red control in TMD8 lymphoma cells), 4 h; activity change, negative = inhibition: at 46.1 µM (top of the series) unless noted;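 for activity change, negative = inhibition: plate controls were basal doxycycline-induced cells for no effect and cells given 10 µM MG132 for full effect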
In short: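 Cell line TMD8 (human ABC DLBCL), stably expressing tet-inducible CBG68-IkBa fusion and CBR; IMDM/0.5% FBS; cpd up to 46 uM; dox induction, 4 h, 37C/5% CO2; dual luminescence; green/red ratio; MG132 control.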
Potency is the fitted concentration of half-maximal effect.

SMILES | activity change, negative = inhibition | Potency
O=C(c1nc2ccccc2[nH]1)c1ccccc1[N+](=O)[O-] | inactive | –
OCC1(CCCc2ccccc2)CCN(Cc2cnc(N3CCOCC3)s2)CC1 | inconclusive: 3.85% | –
S=C(NCC1(c2ccccc2)CCCC1)Nc1ccccc1 | inactive | –
CC(=O)Nc1ccc(S(=O)(=O)N2CCCN(S(=O)(=O)c3ccc(NC(C)=O)cc3)CC2)cc1 | inconclusive: -0.871% | –
NS(=O)(=O)OCCCc1ccccc1 | – | inconclusive: 22.4 µM [rising, partial curve, poor fit]
CCOCCCNC(=O)C(NC(=O)c1ccc(NC(C)=O)cc1)c1ccc(OC)cc1 (stereo not given) | inconclusive: 0.639% | –
Cc1ccc(CS(=O)(=O)c2cn(CC(=O)N3CCOCC3)c3ccccc23)cc1 | – | inconclusive: 3.55 µM [falling, partial curve, poor fit]
CC(=O)CSc1nc(-c2ccccc2)c(-c2ccccc2)o1 | inactive | –
CC(C)(C)[C@H]1COC(=O)[C@@H](Cc2ccc(F)cc2)CC/C=C/C[C@@H](CC(=O)N[C@H](CO)Cc2ccccc2)C(=O)N1 | inactive | –
O=C(OCc1nnc(-c2ccccc2)o1)c1ccc(Cl)cc1 | inactive | –
COc1cc(C(=O)Nc2sc3c(c2C(=O)O)CCC(C)C3)cc(OC)c1OC (stereo not given) | inconclusive: -17.5% | –
O=C(C1=C[C@@H](C2CCCCC2)C[C@@H](OCCCCO)O1)N1CCN(Cc2ccccc2)CC1 | inconclusive: -23.6% | –
CCCCNC(=O)C1CCCN(S(=O)(=O)c2ccc(S(=O)(=O)NCC(C)C)cc2)C1 (stereo not given) | – | inconclusive: 2.06 µM [rising, full curve, poor fit]
CCN(C[C@H]1N[C@@](C)(C(=O)OC)[C@H]2C(=O)N(Cc3ccccc3)C(=O)[C@@H]12)C(=O)Nc1ccc(F)cc1 | inactive | –
COC(=O)C1CCN(C(c2ccccc2Cl)c2sc3nc(-c4ccco4)nn3c2O)CC1 (stereo not given) | inactive | –
Cn1c(=O)c2c(nc(CN3CCC(C(N)=O)CC3)n2Cc2ccccc2Cl)n(C)c1=O | inconclusive: 0.804% | –
O=C1CC(N2CCN(C3CC(=O)N(CCc4ccccc4)C3=O)CC2)C(=O)N1CCc1ccccc1 (stereo not given) | inconclusive: -1.8% | –
CCCc1cc(=O)[nH]c(SCC(=O)c2cc(C)n(CCOC)c2C)n1 | inactive | –
Cc1ccc(NC(=O)c2ccc([N+](=O)[O-])o2)cc1C | inconclusive: -19.7% | –
O=C(C1CCCN(Cc2ccccc2[N+](=O)[O-])C1)N1CCCC1 (stereo not given) | inconclusive: 3.94% | –
O=C(C[n+]1cccc(CNC(=O)c2ccc(OC(F)F)cc2)c1)Nc1cc(C(F)(F)F)ccc1Cl | inactive | –
CCN=C1S/C(=C\c2sccc2C)C(=O)N1CC | – | inconclusive: 16.4 µM [falling, single point]
CCc1c(C#N)c(SCCC(=O)Nc2cccc(OC)c2)nc2c1C(=O)CC(C)(C)C2 | inconclusive: -2.44% | –
CCOC(=O)[C@H]1[C@H]2COc3ccc(Br)cc3[C@@H]2N2C(=O)c3ccc(Cl)cc3NC(=O)[C@@]12C | – | inconclusive: 4.61 µM [falling, partial curve, poor fit]
COCc1ccc(-c2c(-c3cccc(OC)c3)sc3ccc(OC)cc23)cc1 | inconclusive: 2.15% | –

Whole records from above. Order of values: activity change, negative = inhibition	Potency
O=C(OCc1nnc(-c2ccccc2)o1)c1ccc(Cl)cc1 reads inactive	–
CCN=C1S/C(=C\c2sccc2C)C(=O)N1CC reads –	inconclusive: 16.4 µM [falling, single point]
O=C(C[n+]1cccc(CNC(=O)c2ccc(OC(F)F)cc2)c1)Nc1cc(C(F)(F)F)ccc1Cl reads inactive	–

The list continues.

SMILES | activity change, negative = inhibition | Potency
CCn1c(COc2ccccc2)nc2ccccc21 | inactive | –
CC(=O)Cc1nsc(NC(=O)c2cccs2)n1 | inconclusive: -15.4% | –
CCCNC(=O)c1nn2cc(Br)cnc2c1Br | inconclusive: 3.58% | –
O=C(NNC(=O)c1cc(Cl)ccc1O)c1cccs1 | inconclusive: 271% | –
CCCn1c(N)c(N(CCOC)C(=O)CSc2ccccc2)c(=O)[nH]c1=O | inconclusive: -1.01% | –
COCCNC(=O)CSc1nnc(NC(=O)Nc2ccc(C)cc2)s1 | inactive | –
COc1ccccc1N1CCN(C(=O)C2CCCN(S(=O)(=O)c3ccc4c(c3)oc(=O)n4C)C2)CC1 (stereo not given) | inconclusive: -24.8% | –
Cc1ccc2c(c1)N(CC(=O)OC(CC(C)C)C(=O)NC1CCCC1)C(=O)CO2 (stereo not given) | inconclusive: -0.539% | –
Cc1cccc(N(CC(=O)NCc2ccc(F)cc2)C(=O)c2csnn2)c1C | – | inconclusive: 2.82 µM [falling, partial curve, poor fit]
N#C/C(=N\Nc1ccc(Cl)c(Cl)c1)C(=O)C1CC1 | inconclusive: 0.832% | –
Cc1cc(C(=O)NC2CCCCC2)c(C)n1-c1ccc(F)cc1 | – | inconclusive: 23.1 µM [falling, partial curve]
N/C(=N\OC(=O)C12CC3CC(CC(C3)C1)C2)c1ccncc1 | inconclusive: -0.326% | –
O=C(NN1C(=O)c2ccccc2NC1c1ccc([N+](=O)[O-])o1)c1ccc(Br)cc1 (stereo not given) | – | inconclusive: 22.4 µM [rising, single point]
CCOC(=O)c1c(C)oc2ccc(OCc3cc(C(=O)OC)oc3C)cc12 | inconclusive: -13.2% | –
Cc1ccc(C(=O)N(C)CCOc2ccccc2)cc1S(=O)(=O)N1CCOCC1 | inconclusive: 3.31% | –
Cc1ccc2c(c1)Oc1ccc(NC(=O)CCCl)cc1C(=O)N2 | – | inconclusive: 35.5 µM [falling, single point]
COC(=O)c1ccc(NC(=O)C2CCCN(S(C)(=O)=O)C2)cc1 (stereo not given) | inconclusive: -2.42% | –
Cc1ccc(NC(=O)c2nsc(Cl)c2Cl)cc1 | – | inconclusive: 14.1 µM [falling, partial curve, poor fit]
CCCc1ccc2oc(C(=O)N3CCC(COC)C3)c(C)c2c1 (stereo not given) | inconclusive: 0.842% | –
CSC1=NSC2=NC(=O)/C(=C/c3coc4ccc(O)cc4c3=O)C(=N)N12 | inconclusive: 7.35% | –
O=C1S/C(=C\C=C\c2ccco2)C(=O)N1c1ccc(O)cc1 | inactive | –
O=C(CCCCCNC(=O)N1CCn2c1nc1ccccc12)N[C@@H](Cc1ccccc1)C(=O)O | inactive | –
COCCCNc1oc(COc2ccc(Cl)cc2Cl)nc1C#N | – | inconclusive: 35.5 µM [falling, partial curve, poor fit]
Oc1ccc(C[C@H]2CNCCN2CCC23CC4CC(CC(C4)C2)C3)cc1 | inactive | –
O=C(N1CCN(c2ccccc2)CC1)C12CC3CC(CC(C3)C1)C2 | inactive | –
